Results are given in words; binding and its absence hold for the method and conditions named.

This is an account of results in article PMC8713982, “Structure and RNA template requirements of Arabidopsis RNA-DEPENDENT RNA POLYMERASE 2”.

This assay has as its target RNA-… RNA POLYMERASE 2 (Arabidopsis) (UniProt O82504). As to the kind of experiment: cryo-EM structure; single-particle cryo-EM of purified recombinant RDR2 alone (Titan Krios, 300 kV, K3 camera; no tilt and 30° tilt); both purified.

B1: RNA-… RNA POLYMERASE 2 (enzyme, UniProt O82504 1-1133)
chain: MVSETTTNRSTVKISNVPQTIVADELLRFLELHLGEDTVFALEIPTTRDNWKPRDFARVQFTTLEVKSRAQLLSSQSKLLFKTHNLRLSEAYDDIIPRPVDPRKRLDDIVLTVGFPESDEKRFCALEKWDGVRCWILTEKRRVEFWVWESGDCYKIEVRFEDIIETLSCCVNGDASEIDAFLLKLKYGPKVFKRVTVHIATKFKSDRYRFCKEDFDFMWIRTTDFSGSKSIGTSTCFCLEVHNGSTMLDIFSGLPYYREDTLSLTYVDGKTFASAAQIVPLLNAAILGLEFPYEILFQLNALVHAQKISLFAASDMELIKILRGMSLETALVILKKLHQQSSICYDPVFFVKTQMQSVVKKMKHSPASAYKRLTEQNIMSCQRAYVTPSKIYLLGPELETANYVVKNFAEHVSDFMRVTFVEEDWSKLPANALSVNSKEGYFVKPSRTNIYNRVLSILGEGITVGPKRFEFLAFSASQLRGNSVWMFASNEKVKAEDIREWMGCFRKIRSISKCAARMGQLFSASRQTLIVRAQDVEQIPDIEVTTDGADYCFSDGIGKISLAFAKQVAQKCGLSHVPSAFQIRYGGYKGVIAVDRSSFRKLSLRDSMLKFDSNNRMLNVTRWTESMPCFLNREIICLLSTLGIEDAMFEAMQAVHLSMLGNMLEDRDAALNVLQKLSGENSKNLLVKMLLQGYAPSSEPYLSMMLRVHHESQLSELKSRCRILVPKGRILIGCMDEMGILEYGQVYVRVTLTKAELKSRDQSYFRKIDEETSVVIGKVVVTKNPCLHPGDIRVLDAIYEVHFEEKGYLDCIIFPQKGERPHPNECSGGDLDGDQFFVSWDEKIIPSEMDPPMDYAGSRPRLMDHDVTLEEIHKFFVDYMISDTLGVISTAHLVHADRDPEKARSQKCLELANLHSRAVDFAKTGAPAEMPYALKPREFPDFLERFEKPTYISESVFGKLYRAVKSSLAQRKPEAESEDTVAYDVTLEEAGFESFIETAKAHRDMYGEKLTSLMIYYGAANEEEILTGILKTKEMYLARDNRRYGDMKDRITLSVKDLHKEAMGWFEKSCEDEQQKKKLASAWYYVTYNPNHRDEKLTFLSFPWIVGDVLLDIKAENAQRQSVEEKTSGLVSI
Regarding B1, the binding result is on record as “no binding”.
